Measurements from paper doi:10.1101/2023.01.24.524588.
Results are given in words; binding and its absence hold for the method and conditions named. In cells and extracts the contact can be indirect. Binding can be weak; no strength is given.

Target: ClSca (Cellulosilyticum lentocellum DSM 5427)
Assay: pull-down

B1: Clole_0709 (enzyme, UniProt F2JNU4 1-1051)
chain: MNKRYKKIMVSLMATSMVLNLGVSMPIIAGPVEPPFNYAEAFQKSMYFYDANKCGPGVGEGELTWRGDCHTEDKFVPLVPKDDVTGMGTNLSASFIKQNKETLDPDGDGTVDLSGGFHDAGDHVKFGLPQSYSGSTLGWGYYEFKESYVAIGEKEHIESILRGFNDYFMRCTFKNSEGEVVAFAYQVGDGTTDHNYWGPPELQKTARPAFFASAQTPASDQCAGAAASLAINYLNFKDSDPAYAEKSLETAEALYEFAKENRGLGFSGGFYNSSYDEDEMSWAAVWLSIATGDKSYLTDITAVDANGAYTGYMSRIISTTSSTWQNIWVHSWDTVWGGVFAKLAPLTNNPEHWYFFRWNIEYWSGVPHENPNDTTYMASTPAGYKVVSTWGSARYETTAQLCALVYNKYKANSDFTKWCKSQMDYLLGDNPMNRCYEVGYSDISAIYPHHRAAHGSLTNSMLEPAVERHTLWGALVGGPDGDDYHKDDITDYVYNEVAIDYNAGFVGALAGLYELYGKGQAPLENFPPQEKDERPFYATAKIEQENSERSQITVKIHNDTSCPPSFESGLKARYFFDISEMVEAGQSLKELSVQVMYDQASIVDGVKTNINGPFMWDEEKNIAYIELDWSQNSFHGNREIHFGLVPTQDSQYKVHWDFTNDWSHEGLTKVEALTEYVPIYLNGEKVFGKEPTSYNVSINTPVEGSTISYIEGEKPITLEAIVGAAEESVTSIAYYADGIQIGEVQNAPYTFDYVADNISNVEQRKIAFSAKAHLANGTTITSKPVTITVVYRMPEALVVKLIEPAEGSIVDATKGSVSIPVTAVSENEAVTKIAIYANNEKLGEGSGLTYTTLYNTPSKGGASGNLTVTFKAVATLANGEEKEGKPVTMQIKLPVVISDLEGFSFKMQGSDSITSNTIGRKIIMKNTEGEAVDLAALSVRYYFTKEGNVGQTYFCDHASMTFNKAPWYAALTSDITYKVVNLDTPVNGADTYLELTFEKVGYDLEVGDTLEIEGRLINTNWSNFDQSNDHSYSNGAVVFYNDAVISGTIPQ
B1 was tested. Which binding did it give?
The binding was “binds”.
